Test results reported in the supplement of paper PMC3334620.
The full ranking holds about 33,000 sequences; the median of “E-score (-0.5 to 0.5)” is about -8e-05, and the highest 2% start at about 0.23. The list shows a part of the results.

What follows are sequences tested against T1, Nrg2 (UniProt P38082) (assay: PBM E-score (8-mer binding enrichment) (E-score (-0.5 to 0.5)); higher = stronger / more preferred TF binding). Conditions: protein concentration: 100 nM; construct: GST-full length.
T1 sequence: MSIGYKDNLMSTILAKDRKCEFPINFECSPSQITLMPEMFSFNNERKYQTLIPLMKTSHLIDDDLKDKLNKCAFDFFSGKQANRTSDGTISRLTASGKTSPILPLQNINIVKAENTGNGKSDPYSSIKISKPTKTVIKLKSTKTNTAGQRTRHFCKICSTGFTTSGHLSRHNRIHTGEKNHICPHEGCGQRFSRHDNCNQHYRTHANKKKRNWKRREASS
In short: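 Yeast transcription factors, full-length or as DNA-binding domains, were expressed with a GST tag using PURExpress in vitro transcription/translation. At about 100-200 nM they were applied to universal all-10-mer Agilent arrays, double-stranded by primer extension on fresh or once-stripped slides. Fluorescent anti-GST detected bound protein, and masliner normalised the scans. E-scores for ungapped eight-base words, pooled with reverse complements, came from the Universal PBM Analysis Suite.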

Sequence	PBM E-score
ATCGGTGC	0.0985
AATCATTC	0.0508
AACTCGCC	0.124
ACTAGACC	0.17
CGAGGGCA	0.103
GCACACGA	-0.077
ATCGCTAA	-0.106
AGACCGAA	0.0745
GAATAGAA	0.193
CTGCTAAG	-0.216
GATATCGC	0.168
ACGCATGG	-0.243
ACGTACGG	0.00104
GTGGGTCA	-0.0425
AAGGCATA	-0.00967
AAGGCAGT	0.0607
AAGCCGTA	-0.0199
ATAAGCCC	-0.166
GGATACGA	-0.106
CTTCGTAA	-0.0449
CCTAATAA	0.00129
CATCTAGG	0.0834
ATATACGG	0.0407
CCCCAAAA	0.032
ATGATAAA	0.189

Sequence	PBM E-score
CCTCAGGA	0.00996
ATCTAGAA	-0.0175
CCTTCTGA	-0.0225
ACTCTTTC	-0.157
ACTGGGTG	-0.0765
GCTCGCAA	0.0783
AAAACCCA	0.148
CGCAGGGA	0.17
CAGGCCTG	0.115
ACTCGATG	0.188
AGTGTAGA	-0.15
TACCCCTA	0.173
GGTCGGAC	-0.0249
CGCAAGCG	-0.0991
AGCCGTTC	-0.15
TAGATCTA	0.0825
ATATCAAA	0.096
CTGCATTC	0.115
AAGTCGTC	-0.185
CAACACAC	0.118
GACAGAGC	-0.102
AGAGGGTC	-0.0416
AGGGAAAA	0.0653
AAAAAGGG	-0.031
GCTACCCA	-0.152

Pulled one by one from above, two records:
Sequence	PBM E-score
ACTGGGTG	-0.0765
ACTCGATG	0.188

The list goes on.

Sequence	PBM E-score
AACTGGGA	0.0724
CATTACTA	0.0965
ATACGCCC	-0.19
GAGGGGGC	-0.352
CAAGCAGC	0.046
ATCCACGA	0.124
AGGTTCTA	-0.0711
ATAAGAAG	0.0507
ACAAGAGT	0.00382
ATGTTCAG	-0.0215
CTGACACA	-0.0539
CACTGTAA	0.0516
AGCAACAG	-0.0597
CGCGTCTA	0.0365
GCTCCGGA	-0.138
ACGGTCTA	-0.126
TGCTTACA	-0.0126
GCACGGAC	0.147
ACGTATTG	-0.0152
ACCGGAGG	-0.154
AGACCCCA	0.219
ACGGATCG	-0.225
ACAGAGGA	0.00257
TGAGCCCA	0.105
ATGAGACG	-0.0393

Sequence	PBM E-score
AGGATCGG	-0.147
AGACCCGC	0.0763
TAAATCAA	0.036
GATCAGCA	0.035
CAGTTCGC	0.0802
GAAATCAA	0.166
AATAAAGC	-0.0101
CATATTGG	0.105
CTTGGCGC	0.115
CGATAGAA	0.0645
ACGACGGA	0.153
CAGGGAGA	0.0226
CTCCGAGA	-0.0399
TACCTCTA	0.113
AAGTTGGG	0.0952
AACTCTGC	-0.0708
ATTTCGCG	0.275
GGAAACTA	-0.0456
ATTTCAAC	0.0302
CGAGGCAG	-0.0745
TCATGCGA	0.112
ATTCGTTC	0.28
GAAAACTC	-0.0267
AGAAGGAC	-0.0356
CTGAGATC	-0.0337

Sequence	PBM E-score
ATCTGAGC	0.0357
GGCCCGCC	-0.242
CAGTCTTA	-0.211
GTTTAGAA	-0.0651
GTTCATTA	0.133
AACTAAGC	0.109
ACCAGGTG	-0.139
GAGACCCA	-0.0541
CATTGCTC	-0.109
GAAAATAA	0.0631
CCACAGGG	0.161
CTGGCGAA	0.0129
AAGTCGAG	-0.0268
AGAAGGTA	0.179
AGTTGAGC	0.0537
CCTATGAC	-0.124
CGTGGTCC	-0.174
GGAGTTAA	-0.0668
ATCAGTGA	0.0481
AAAATGCT	0.058
CGATGTCC	0.0965
ACGCTTCT	-0.00794
CCCGTACA	-0.0951
CGACTGAC	-0.0912
GATAGCTA	-0.149

Sequence	PBM E-score
CAAATATC	0.256
GTACCAGA	-0.167
TGGTTTAA	0.0356
ATTCCCCC	-0.267
ATCTCGTG	-0.0868
ATCACTCC	-0.151
CACGCCCC	-0.0269
ATACGCAG	-0.235
GTGCAGTA	-0.0363
GAGCTGGA	-0.135
GCCAACAC	-0.126
CAATCTTC	0.0925
AGTAAATA	0.147
AACGACCG	-0.165
AGATAGCG	0.0366
ATCTCTGC	0.148
CGACGCTC	-0.0302
AGGTTGTC	-0.197
GTTTGCAA	0.134
CCTAGTCG	-0.119
CTACGAGC	-0.152
CTGGGCCC	0.0434
CTGCACAC	-0.155
ACTCAAGA	0.00721
AAGGCCTC	-0.0691

Sequence	PBM E-score
ACGCTGTC	-0.0824
ATATTTTC	0.215
CCGCGCAA	0.0313
CGATTCGA	0.27
ACACTAGT	-0.0556
AATGCCCC	-0.0413
TAACGCTA	-0.135
AATTGGGA	0.0665
AACCTGTG	0.0227
ATGGCTTG	-0.0427
ATTTACTG	0.107
AACAATGT	0.0569
CACTCTGG	-0.0491
AGCCAATA	-0.169
GAGAAGGC	-0.117
AAATAGTC	0.0979
GGAATCTA	0.0415
CCATGGGG	0.0538
CACTCCCC	-0.00765
CGAGGTGA	0.198
GACCGCCA	-0.0413
AACTTGGG	-0.00875

Single values from the entries so far.
CAAGCAGC | PBM E-score: 0.046
GGAATCTA | PBM E-score: 0.0415
AGGATCGG | PBM E-score: -0.147
